From ChEMBL document CHEMBL3988442, “University of Dundee, Small-Polar-MMV Screening Library” (2021).

Amino acid sequences for entries named in this document (tags omitted).
UniProt E9BF75, entry or part of it: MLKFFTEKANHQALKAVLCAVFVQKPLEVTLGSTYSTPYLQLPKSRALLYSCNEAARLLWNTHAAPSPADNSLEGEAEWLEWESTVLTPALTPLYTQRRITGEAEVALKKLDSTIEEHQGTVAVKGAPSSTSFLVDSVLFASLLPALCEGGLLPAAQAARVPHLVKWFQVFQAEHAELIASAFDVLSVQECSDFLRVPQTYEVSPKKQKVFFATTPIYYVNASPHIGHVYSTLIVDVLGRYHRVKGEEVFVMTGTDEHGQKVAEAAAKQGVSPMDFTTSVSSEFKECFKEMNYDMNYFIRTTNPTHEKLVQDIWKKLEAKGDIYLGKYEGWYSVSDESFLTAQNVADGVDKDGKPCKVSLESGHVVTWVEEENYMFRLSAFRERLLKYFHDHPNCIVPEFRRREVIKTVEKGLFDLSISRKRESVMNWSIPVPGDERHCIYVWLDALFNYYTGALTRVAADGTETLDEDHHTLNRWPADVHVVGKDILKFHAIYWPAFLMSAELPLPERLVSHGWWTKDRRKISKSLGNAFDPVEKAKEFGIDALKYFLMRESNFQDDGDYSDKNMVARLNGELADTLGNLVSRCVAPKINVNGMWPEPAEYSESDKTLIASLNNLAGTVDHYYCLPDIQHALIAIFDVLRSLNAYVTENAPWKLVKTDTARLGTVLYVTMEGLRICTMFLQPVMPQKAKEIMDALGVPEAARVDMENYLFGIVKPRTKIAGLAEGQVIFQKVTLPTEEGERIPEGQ

LdMetRS: 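Methionyl-tRNA synthetase (putative), Leishmania donovani (UniProt E9BF75). Primary screen of methionyl-tRNA synthetase; the read-out is not stated. The test concentration is not given. Values are per cent inhibition. About 68,000 compounds were tested under these conditions; 0.035% (about 24) showed 50% or more at least once.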
Mtb heat-shock: 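Assay on Mycobacterium tuberculosis, filed only as a heat shock assay from Cornell; the read-out is not stated. The concentration is filed as 10 mM, unlikely as a test dose, so the dose is not known. Higher reads as stronger inhibition (inferred: compounds with an IC50 in retests scored well above the rest). About 69,000 compounds were tested under these conditions; 1.4% (about 930) showed 50% or more at least once.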

All values are in %.
The record does not define 0% and 100%; most values in the screen are far below 50% and negative numbers occur (in some assays of this library far below -100).
Compounds were drawn at random from those tested, without regard to their results.
A dash means the value is not listed here; it may have been measured.

structure | LdMetRS | Mtb heat-shock
Cn1cc(C(=O)N2CCSc3ccccc32)ccc1=O | 10.06 | 0.03121
[H][C@]12CC[C@]([H])(CN(Cc3c(C)noc3C)C1)N(Cc1ccc(F)c(C)c1)C2 | - | 33.59
O=C1N(CC2CCCC2)CCC12CCN(c1ncc(F)cn1)CC2 | 10.58 | -
CCC[C@H]1CN(C2CCOCC2)C[C@@H]1NC(=O)CCn1ccnc1C | 4.178 | -3.164
O=C(O)C(F)(F)F.[H][C@@]12CCN(Cc3ccc(OC)cc3)[C@@]1([H])CC(=O)N2CCOC | - | 12.21
Cc1ncnc2c1CCN(C(=O)c1cccn1C)CC2 | 16.48 | -0.5796
O=C(O)CCc1ccc(S(=O)(=O)Nc2cnn(CC(F)(F)F)c2)cc1 | 20.37 | 15.85
c1nnc(Nc2cncc(C3CCCN3)n2)s1 (stereo not drawn) | 16.46 | -
COc1cc(N2CC[C@@H](O)[C@@H]2Cc2cccnc2)ncn1.O=C(O)C(F)(F)F | - | 0.6687
CCC(O)CN1CCN(C(=O)C2(c3ccc(C)c(OC)c3)CC2)CC1 (stereo not drawn) | 1.985 | -1.641
CC(O)CNC(=O)c1nc(Cc2c(Cl)cccc2Cl)no1 (stereo not drawn) | 5.362 | 1.122
N#Cc1c(N)nc2c(c1C1CCOC1)CCc1cc(O)ccc1-2 (stereo not drawn) | 6.192 | -6.312
O=C(c1cscn1)N1CC[C@@H]2[C@@H]1CCN2CC1CCOCC1 | -0.5464 | -
CC(=O)N(C)CC(=O)NCC1(c2c(F)cccc2F)CCCC1 | 13.17 | 9.277
Cc1cc(CN(C)C(=O)NC2CCS(=O)(=O)C2)no1 (stereo not drawn) | 17.36 | -17.74
CCN(Cc1ccncc1)C1CCCN(Cc2ccc(F)cc2Cl)C1 (stereo not drawn) | 7.246 | 3.898
Cn1cccc1CNC(=O)N(CCO)C1CCCc2ccccc21 (stereo not drawn) | 19.01 | 13.65
CCOc1cccc(CCNC(=O)NC2CCc3[nH]ncc3C2)n1 (stereo not drawn) | 4.082 | -17.35
CCCN(C1CCc2ccccc2C1)S(C)(=O)=O (stereo not drawn) | 8.059 | -33.06
CCN(CC)C(=O)C1CCN(C(=O)Nc2cccnc2OC)CC1 | 3.147 | -36.45
O=C([C@H]1C[C@H]2OCC[C@H]2N(CC2CC2)C1)N1CCCC1 | 13.49 | -
O=C(CCNc1ncccn1)NCc1cccc(OC(F)F)c1 | 14.63 | 18.35
O=C(COCC(F)(F)F)Nc1nncs1 | -1.955 | -6.397
Cn1c(N)nnc1SC1CCCN(c2ccccc2)C1=O (stereo not drawn) | 9.524 | -0.8563
Cc1cccc(CN2CCCC3(CCC(=O)N3CCN(C)C)CC2)n1 (stereo not drawn) | 4.808 | -
Cc1ccc(OCCCNC(=O)CN(C)c2ccc(C#N)cn2)cc1 | 16.06 | 22.6
CNS(=O)(=O)c1ccc(CNC(=O)NCC2CCC2)cc1 | 5.155 | 7.054
Cc1nc(Nc2cnccn2)cc(C2CCCN2)n1 (stereo not drawn) | 0.9434 | -
O=C(NCCSc1ccccc1)[C@H]1CNC[C@H](C(=O)N2CCOCC2)C1 | 2.558 | 13.78
COCCN1C(=O)[C@H]2CC[C@@H]1CN(S(=O)(=O)c1cccc(Cl)c1)C2 | 3.081 | -
COc1cc(C(=O)N2CCC(Nc3cccnc3)CC2)ccc1C | 19.02 | -8.389
COc1c[nH]c(C(=O)Nc2nc(C(C)(C)C)cs2)cc1=O | 12.42 | 39.24
CC(C)CNC(=O)[C@H]1CCS(=O)(=O)[C@@H]2CN(Cc3ccc(F)cc3)C[C@H]12 | 2.538 | -
O=C(NC1(c2nnn(Cc3ccncc3)n2)CCCC1)c1ccccc1 | 15.61 | -0.9258
Cc1cnc2n(c1=O)C(CC(=O)NCc1cccnc1)CS2 (stereo not drawn) | 14.65 | 23.24
Cc1ccc([C@H]2CN(C(C)C)C[C@@H]2NS(=O)(=O)N2CCOCC2)o1 | 4.935 | 19.54
CS(=O)(=O)N1CCOCC2(CCN(Cc3ccc[nH]3)CC2)C1.O=C(O)C(F)(F)F | - | -10.41
CCN1CC(c2ccccc2)CC2(CCN(Cc3ncc[nH]3)CC2)C1 (stereo not drawn) | 5.74 | -191
Cc1nn(CCC(=O)NC2CCS(=O)(=O)C2)c(C)c1Br (stereo not drawn) | 22.58 | 7.803
CCS(=O)(=O)N1CCCC(c2nc3ccccc3n2C(C)C)C1 (stereo not drawn) | - | -16.95
Cc1cc(C(=O)N2CCN(c3nc4ccccc4s3)CC2)no1 | 4.065 | -15.49

4 of the entries, repeated:

| structure | LdMetRS | Mtb heat-shock |
|---|---|---|
| `CCN(CC)C(=O)C1CCN(C(=O)Nc2cccnc2OC)CC1` | 3.147 | -36.45 |
| `Cn1cccc1CNC(=O)N(CCO)C1CCCc2ccccc21` (stereo not drawn) | 19.01 | 13.65 |
| `O=C1N(CC2CCCC2)CCC12CCN(c1ncc(F)cn1)CC2` | 10.58 | - |
| `CNS(=O)(=O)c1ccc(CNC(=O)NCC2CCC2)cc1` | 5.155 | 7.054 |